Reference: US20100179128A1, “XANTHINE DERIVATIVES AS SELECTIVE HM74A AGONISTS” (priority 2005, published 2010)
Some of these results come from one statement about several compounds together.

Protein sequences, listed by entry. Tags and fused reporters are not part of them. Lines headed by an entry give the natural chain unless they say otherwise; changes in a name come on top.
UniProt Q8TDS4: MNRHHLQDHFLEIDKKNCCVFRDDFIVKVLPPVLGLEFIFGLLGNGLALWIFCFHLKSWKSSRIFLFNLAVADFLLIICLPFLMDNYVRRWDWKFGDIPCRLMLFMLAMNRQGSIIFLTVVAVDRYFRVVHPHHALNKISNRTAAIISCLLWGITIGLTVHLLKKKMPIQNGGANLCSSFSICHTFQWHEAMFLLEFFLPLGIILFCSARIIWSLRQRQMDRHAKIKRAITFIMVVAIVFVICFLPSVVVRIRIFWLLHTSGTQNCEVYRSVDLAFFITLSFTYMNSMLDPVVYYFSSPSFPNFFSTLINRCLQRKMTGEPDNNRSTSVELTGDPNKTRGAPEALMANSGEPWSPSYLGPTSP

Molecular target: T1, Human HM74A (Homo sapiens, UniProt Q8TDS4)
T1 construct: expressed in transfected cells; P2 membrane fractions
Experiment: [35S]-GTPγS binding assay on HM74A membranes (10 μl and 50 μl formats)
Format: biochemical
Details: % efficacy compared to the maximal response of nicotinic acid; 10 μl and/or 50 μl assay
Procedure: For transient transfections, HEK293T cells (HEK293 cells stably expressing the SV40 large T-antigen) were maintained in DMEM containing 10% foetal calf serum and 2 mM glutamine. Cells were seeded in 90 mm culture dishes and grown to 60-80% confluence (18-24 h) prior to transfection. Human HM74A (GenBank™ accession number AY148884) was subcloned in to a mammalian expression vector (pcDNA3; Invitrogen) and transfected using Lipofectamine reagent. For transfection, 9 μg of DNA was mixed with 30 μl Lipofectamine in 0.6 ml of Opti-MEM (Life Technologies Inc.) and was incubated at room temperature for 30 min prior to the addition of 1.6 ml of Opti-MEM. Cells were exposed to the Lipofectamine/DNA mixture for 5 h and 6 ml of 20% (v/v) foetal calf serum in DMEM was then added. Cells were harvested 48 h after transfection. Pertussis toxin treatment was carried out by supplementation into media at 50 ngml^−1 for 16 h. All transient transfection studies involved co-transfection of receptor together with the Gi/o G protein, Go1α.
For generation of stable cell lines the above method was used to transfect CHO-K1 cells seeded in six well dishes grown to 30% confluence. These cells were maintained in DMEM F-12 HAM media containing 10% foetal calf serum and 2 mM glutamine. 48 h post-transfection the media was supplemented with 400 μg/ml Geneticin (G418, Gibco) for selection of antibiotic resistant cells. Clonal CHO-K1 cell lines stably expressing HM74A were confirmed by [^35S]-GTPγS binding measurements, following the addition of nicotinic acid.
P2 membrane preparation—Plasma membrane-containing P2 particulate fractions were prepared from cell pastes frozen at −80° C. after harvest. All procedures were carried out at 4° C. Cell pellets were resuspended in 1 ml of 10 mM Tris-HCl and 0.1 mM EDTA, pH 7.5 (buffer A) and by homogenisation for 20 s with a Ultra Turrax followed by passage (5 times) through a 25-gauge needle. Cell lysates were centrifuged at 1,000 g for 10 min in a microcentrifuge to pellet the nuclei and unbroken cells and P2 particulate fractions were recovered by microcentrifugation at 16,000 g for 30 min. P2 particulate fractions were resuspended in buffer A and stored at −80° C. until required.
[^35S]-GTPγS binding—assays were performed at room temperature in 384-well format based on methods described previously, (Wieland, T. and Jakobs, K. H. (1994) Methods Enzymol. 237, 3-13). Briefly, the dilution of standard or test compounds were prepared and added to a 384-well plate in a volume of 10 μl. Membranes (HM74A or HM74) were diluted in assay buffer (20 mM HEPES, 100 mM NaCl, 10 mM MgCl2, pH7.4) supplemented with saponin (60 μg/ml), Leadseeker WGA beads (Amersham; 250 μg/well) and 10 μM GDP, so that the 20 μl volume added to each well contains 5 μg of membranes. [^35S]-GTPγS (1170 Ci/mmol, Amersham) was diluted (1:1500) in assay buffer and 20 μl added to each well. Following the addition of the radioligand, the plates were sealed, pulse spun and incubated for 4 hours at room temperature. At the end of the incubation period the plates were read on a Leadseeker machine (VIEWLUX PLUS; Perkin-Elmer) to determine the levels of specific binding.
These assays were refined by reducing the final assay volume to 10 μl. For this 10 μl assay a revised protocol was used. This involved the use of only 100 nl of standard or test compound per well of a 384-well plate and 1.5 μg membrane and 100 μg Leadseeker WGA beads. For the low volume protocol, membrane, beads and [^35S]-GTPγS were mixed together and then 10 μl of this mix were dispensed to each well. Incubation and plate read were identical for the 10 μl and 50 μl assays.
All exemplified compounds were tested in one or both of the [^35S]-GTPγS binding assays described above (i.e. the 10 μl and 50 μl assays).
Data was analysed by curve fitting as carried out using a Four Parameter Logistical equation using the XC50 software package (max 2 points deleted from any one curve). […]

Compound | efficacy (in relation to nicotinic acid) in the [35S]-GTPγS binding assays
O=c1c2[nH]c(Cl)nc2n(CCN2CCCCC2)c(=O)n1CCCc1nc(Cc2ccc(F)cc2F)no1 [8-chloro-1-(3-{3-[(2,4-difluorophenyl)methyl]-1,2,4-oxadiazol-5-yl}propyl)-3-[2-(1-piperidinyl)ethyl]-3,7-dihydro-1H-purine-2,6-dione] | less than 30%
O=c1c2[nH]c(Cl)nc2n(CCN2CCCC2)c(=O)n1CCCc1nc(Cc2ccc(F)cc2F)no1 [8-chloro-1-(3-{3-[(2,4-difluorophenyl)methyl]-1,2,4-oxadiazol-5-yl}propyl)-3-[2-(1-pyrrolidinyl)ethyl]-3,7-dihydro-1H-purine-2,6-dione] | less than 30%
CN(C)C(C)(C)Cn1c(=O)n(CCCc2nc(Cc3ccc(F)cc3F)no2)c(=O)c2[nH]c(Cl)nc21 [8-chloro-1-(3-{3-[(2,4-difluorophenyl)methyl]-1,2,4-oxadiazol-5-yl}propyl)-3-[2-(dimethylamino)-2-methylpropyl]-3,7-dihydro-1H-purine-2,6-dione] | less than 30%
CN(C)CCn1c(=O)n(CCCc2nc(Cc3ccc(F)cc3F)no2)c(=O)c2[nH]c(Cl)nc21 [8-chloro-1-(3-{3-[(2,4-difluorophenyl)methyl]-1,2,4-oxadiazol-5-yl}propyl)-3-[2-(dimethylamino)ethyl]-3,7-dihydro-1H-purine-2,6-dione] | less than 30%
O=c1c2[nH]c(Cl)nc2n(CCN2CCCCCC2)c(=O)n1CCCc1nc(Cc2ccc(F)cc2F)no1 [8-chloro-1-(3-{3-[(2,4-difluorophenyl)methyl]-1,2,4-oxadiazol-5-yl}propyl)-3-[2-(hexahydro-1H-azepin-1-yl)ethyl]-3,7-dihydro-1H-purine-2,6-dione] | less than 30%
CN1CCN(CCCn2c(=O)n(CCCc3nc(Cc4ccc(F)cc4F)no3)c(=O)c3[nH]c(Cl)nc32)CC1 [8-chloro-1-(3-{3-[(2,4-difluorophenyl)methyl]-1,2,4-oxadiazol-5-yl}propyl)-3-[3-(4-methyl-1-piperazinyl)propyl]-3,7-dihydro-1H-purine-2,6-dione] | less than 30%
CN(C)CCCn1c(=O)n(CCCc2nc(Cc3ccc(F)cc3F)no2)c(=O)c2[nH]c(Cl)nc21 [8-chloro-1-(3-{3-[(2,4-difluorophenyl)methyl]-1,2,4-oxadiazol-5-yl}propyl)-3-[3-(dimethylamino)propyl]-3,7-dihydro-1H-purine-2,6-dione] | less than 30%
